Drawing on PMC10477481, “Chlorotoxin binds to both matrix metalloproteinase 2 and neuropilin 1” (The Journal of Biological Chemistry, 2023), this text covers binding for 2 substances.

Chains of the proteins cited; added tags and fusions are not shown. Residues count along the entry.
UniProt P02768, residues 25-609: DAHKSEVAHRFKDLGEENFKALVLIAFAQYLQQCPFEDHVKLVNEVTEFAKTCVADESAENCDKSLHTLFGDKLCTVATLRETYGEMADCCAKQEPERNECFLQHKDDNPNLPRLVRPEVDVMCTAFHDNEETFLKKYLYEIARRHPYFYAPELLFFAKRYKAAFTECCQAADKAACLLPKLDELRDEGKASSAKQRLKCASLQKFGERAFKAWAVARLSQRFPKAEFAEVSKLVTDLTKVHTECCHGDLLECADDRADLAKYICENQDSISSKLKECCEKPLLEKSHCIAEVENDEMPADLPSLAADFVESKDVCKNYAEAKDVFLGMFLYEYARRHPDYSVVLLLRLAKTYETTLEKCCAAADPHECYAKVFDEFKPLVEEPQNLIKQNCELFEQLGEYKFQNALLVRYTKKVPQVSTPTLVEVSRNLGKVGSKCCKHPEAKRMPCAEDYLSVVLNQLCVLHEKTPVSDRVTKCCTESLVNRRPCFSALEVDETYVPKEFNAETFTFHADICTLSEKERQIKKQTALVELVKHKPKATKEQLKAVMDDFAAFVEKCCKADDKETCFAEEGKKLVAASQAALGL
UniProt P03952, residues 20-638: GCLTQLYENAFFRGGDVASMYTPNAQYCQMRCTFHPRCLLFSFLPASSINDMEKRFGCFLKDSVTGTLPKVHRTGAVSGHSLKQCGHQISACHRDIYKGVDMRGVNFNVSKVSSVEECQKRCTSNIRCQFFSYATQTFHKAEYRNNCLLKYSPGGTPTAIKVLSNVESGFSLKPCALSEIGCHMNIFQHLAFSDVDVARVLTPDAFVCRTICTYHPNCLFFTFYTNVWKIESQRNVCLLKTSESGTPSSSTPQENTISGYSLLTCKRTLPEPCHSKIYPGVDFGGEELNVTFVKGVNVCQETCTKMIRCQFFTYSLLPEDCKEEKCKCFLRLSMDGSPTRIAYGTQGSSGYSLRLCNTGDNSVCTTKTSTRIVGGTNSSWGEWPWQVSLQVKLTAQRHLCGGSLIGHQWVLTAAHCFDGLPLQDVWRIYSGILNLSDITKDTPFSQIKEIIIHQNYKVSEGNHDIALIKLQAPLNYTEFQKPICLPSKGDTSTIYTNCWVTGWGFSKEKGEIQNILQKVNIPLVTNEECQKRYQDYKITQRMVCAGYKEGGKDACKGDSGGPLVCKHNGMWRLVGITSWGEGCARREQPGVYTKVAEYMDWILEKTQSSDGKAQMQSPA
UniProt P45639: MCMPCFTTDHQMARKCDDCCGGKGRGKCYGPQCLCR

No constants are given. Whether binding was seen depends on the method and setting.

Experiment [1] concerns the target human serum albumin, C-terminal His tag (Abcam ab217817) (human) (UniProt P02768). The experiment can be described thus: flow cytometry of protein-coated microbeads (cobalt-coated bead test); both purified. In general terms: In flow cytometry, cells or beads pass a laser one at a time.
For experiment [2] the target is unchanged. The experiment can be described thus: flow cytometry of protein-coated microbeads (cobalt-coated bead test with phages); only the target purified.
For experiment [3], the target named is recombinant human plasma kallikrein/KLKB1, C-terminal His tag (human) (UniProt P03952). The experiment is described as above.

In the case of “cyanine 5-labeled chlorotoxin (from UniProt P45639 1-36) (peptide)”, in experiment [1], the binding entry is “no binding (tested: 1 μM CTX-Cy5)”.
Take “CTX-displaying phage (CTX fused to the P3 coat protein of M13) (from UniProt P45639 1-36)”: the binding result in experiment [2] is “no binding (tested: 5.5 × 10^14 particles/ml)”; in experiment [3], “no binding (tested: 6 × 10^14 particle/ml)”.
